From the odorant receptor screen of Mainland et al. (2015) come the findings set out here.

Assay in all cases: odorant receptor activation (CRE luciferase / Renilla) (fold of no-odor wells); higher = more activation
Holding throughout (details): 100 µM

For experiment [1], the system named is OR2T10 clone 1047.
The test system of experiment [2] is OR2T11 C119R/Q309R clone 1050.
The subject of experiment [3] is OR2T11 C119R/Q309R clone 1051.
Experiment [4] deals with OR2T2 clone 1561.
The subject of experiment [5] is OR2T29 clone 1545.
In experiment [6] the test system is OR2T3 clone 1397.
Experiment [7] concerns OR2T34 clone 1049.
The test system of experiment [8] is OR2T35 V31I clone 1562.
Experiment [9] relates to OR2T4 clone 1347.
Experiment [10] concerns OR2T5 clone 1033.
In experiment [11] the test system is OR2T5 clone 1495.
Experiment [12] relates to OR2T5 clone 1496.
Experiment [13] concerns OR2T6 N21D/C23G/S243A clone 1432.
Experiment [14] deals with OR2T8 clone 1576.
For experiment [15], the system named is OR2V1 clone 1718.
Experiment [16] relates to OR2W1 D296N clone 1536.
The subject of experiment [17] is OR2W1 clone 1067.
The subject of experiment [18] is OR2W3 Indel clone 1491.
Experiment [19] relates to OR2W5 clone 1506.
In experiment [20] the test system is OR2Y1 V200L clone 1069.

Each structure is given as a SMILES string. Where “and” joins values, the source holds several entries; their conditions need not be identical. Identical values can stand only once. This is one part of the list. Each value is one well over the wells without odorant, computed here; the data are noisy.

`CS` [methanethiol]: the odorant receptor activation amounted to 0.983 in experiment [1]; 1.02 in experiment [2]; 1.12 in experiment [3]; 1.6 in experiment [4]; 0.818 in [5]; 0.846 in [6]. For the same compound, the odorant receptor activation stood at 0.864 in experiment [7]; 0.562 in [8]; 0.721 in [9]; 1.06 in experiment [10]; 1.05 in [11]; 0.995 in experiment [12]. In addition, the odorant receptor activation is 0.992 in experiment [13]; 0.77 in experiment [14]; 0.881 in experiment [15]; 1.01 in experiment [16]; 0.999 and 1.2 in [17]; 0.815 in experiment [18]. Further, the odorant receptor activation was 0.776 in experiment [19] and 1.29 in [20].
Regarding `CCC(C)=O` [2-butanone], the odorant receptor activation was found to be 3.25 in experiment [1]; 2.63 in experiment [2]; 2.43 in [3]; 0.789 in experiment [4]; 1.31 in experiment [5]; 0.974 in experiment [6]. Moreover, the odorant receptor activation turned out to be 2.69 in [7]; 0.589 in experiment [8]; 1.32 in experiment [9]; 1.75 in [10]; 1.06 in experiment [11]; 0.991 in experiment [12]. The odorant receptor activation in experiment [13] is 1.11; in experiment [14], 0.676; in [15], 1.05; in [16], 0.977; in [17], 2.36 and 1.93; in experiment [18] it was 0.817. Besides, the odorant receptor activation was 1.36 in [19] and 2.68 in experiment [20].
For `CCCCOC(C)=O` [butyl acetate], the odorant receptor activation came out at 1.11 in [1]; 1.11 in experiment [2]; 1.28 in experiment [3]; 0.691 in experiment [4]; 0.795 in experiment [5]; 0.256 in experiment [6]. Besides, the odorant receptor activation in experiment [7] was determined as 0.824; in [8] it was 1.06; in experiment [9] it was 0.843; in experiment [10], 1.15; in [11] it was 1.08; in experiment [12] it was 1. The odorant receptor activation in [13] was 0.153; in [14], 0.777; in experiment [15], 0.931; in [16] it was 1.53; in experiment [17], 0.911 and 1.75; in experiment [18], 1.12. The odorant receptor activation was determined as 0.913 in experiment [19] and 1.38 in experiment [20].
As to `CCOc1cc(C=O)ccc1O` [ethyl vanillin], the odorant receptor activation in experiment [1] was 1.15 and 1.11; in experiment [2], 0.899 and 1.11; in experiment [3], 1.2 and 1.11; in experiment [4] it was 0.949; in experiment [5], 1.24; in [6] it was 1.21 and 1.04. Also, the odorant receptor activation in experiment [7] is 1.81 and 0.937; in [8], 0.871; in experiment [9], 1.25 and 1.08; in [10], 1.36 and 1.07; in experiment [11], 1.01 and 1.94 and 1.08; in experiment [12], 0.93 and 1.57 and 1.32. In addition, the odorant receptor activation is 1.34 and 1.2 in [13]; 0.844 in experiment [14]; 0.814 in experiment [15]; 1.29 and 2.42 and 1.02 in experiment [16]; 1.04 and 1.79 and 1.11 in experiment [18]; 1.16 and 1.77 and 1.29 in experiment [19]. For the same compound, the odorant receptor activation in experiment [20] was 1.27 and 0.968.
